The target of the assay is β-catenin (human (endogenous in T47D and MDA-MB-231)) (UniProt P35222). Briefly: co-IP; Pierce Co-IP kit, lysates of T47D and MDA-MB-231 cells, detected by western blotting; also after EGF treatment of the cells (interaction decreased); which protein was precipitated is not told. A general note: A western blot detects proteins with antibodies after separation by electrophoresis.

By UniProt entry, the sequences of proteins in these tests, tags left out. Where a name states a change or a piece, a line headed by the entry shows the natural chain unless it says otherwise.
UniProt P35222: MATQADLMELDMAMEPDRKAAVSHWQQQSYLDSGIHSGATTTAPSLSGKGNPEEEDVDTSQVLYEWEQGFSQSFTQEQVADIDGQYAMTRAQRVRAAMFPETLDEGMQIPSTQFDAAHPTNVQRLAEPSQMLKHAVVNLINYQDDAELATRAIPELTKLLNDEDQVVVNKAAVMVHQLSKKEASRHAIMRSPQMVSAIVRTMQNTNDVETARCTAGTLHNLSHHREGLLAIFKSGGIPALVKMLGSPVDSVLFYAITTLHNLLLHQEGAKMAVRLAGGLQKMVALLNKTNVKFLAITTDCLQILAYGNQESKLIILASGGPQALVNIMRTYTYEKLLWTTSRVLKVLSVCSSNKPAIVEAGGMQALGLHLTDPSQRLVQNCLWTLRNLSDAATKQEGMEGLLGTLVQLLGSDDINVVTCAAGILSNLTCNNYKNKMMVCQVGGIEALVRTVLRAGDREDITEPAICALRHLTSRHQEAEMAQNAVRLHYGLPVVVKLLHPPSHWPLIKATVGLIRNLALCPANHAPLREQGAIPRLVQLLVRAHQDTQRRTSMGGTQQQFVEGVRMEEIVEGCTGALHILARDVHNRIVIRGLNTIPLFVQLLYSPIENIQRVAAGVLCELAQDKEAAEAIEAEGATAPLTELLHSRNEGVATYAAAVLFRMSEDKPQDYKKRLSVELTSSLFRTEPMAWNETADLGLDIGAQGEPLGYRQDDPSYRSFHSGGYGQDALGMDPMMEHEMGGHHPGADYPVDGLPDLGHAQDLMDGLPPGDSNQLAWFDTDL

These are yes or no findings as the source states them, for the method shown. In cells and extracts the contact can be indirect. Some results given as binding are weak or reduced against the parent protein; the word gives no strength.

B1: Adherens junctions-associated protein 1 (AJAP1) (protein, UniProt Q9UKB5 44-411)
chain: LGPGPEFWLLPRSPPRPPRLWSFRSGQPARVPAPVWSPRPPRVERIHGQMQMPRARRAHRPRDQAAALVPKAGLAKPPAAAKSSPSLASSSSSSSSAVAGGAPEQQALLRRGKRHLQGDGLSSFDSRGSRPTTETEFIAWGPTGDEEALESNTFPGVYGPTTVSILQTRKTTVAATTTTTTTATPMTLQTKGFTESLDPRRRIPGGVSTTEPSTSPSNNGEVTQPPRILGEASGLAVHQIITITVSLIMVIAALITTLVLKNCCAQSGNTRRNSHQRKTNQQEESCQNLTDFPSARVPSSLDIFTAYNETLQCSHECVRASVPVYTDETLHSTTGEYKSTFNGNRPSSSDRHLIPVAFVSEKWFEISC
In the case of B1, the binding result was “binds”.

Source of the values: paper PMC6554977.
